Measured values from the supplement of paper PMC12578635.
The list shows a part of the results. Cut-off read from the data, not from the text of the source: active = 150% or more and inactive = the rest. Repeats are few or missing, and single values can be far off.

Tested on: Staphylococcus aureus JE2-lux inside RAW 264.7 macrophages
Assay: intracellular bacterial bioluminescence relative to DMSO vehicle; higher = higher intracellular bacterial metabolic activity
Details: 10 µM; treatment time 4 h; gentamicin 50 µg/ml

Intracellular bacterial bioluminescence, inactive:
CC(=O)Nc1cc2c(cc1NC(=O)c1ncoc1-c1cccc(F)c1)OCCO2 89.8%, CCn1c(SCC(=O)NNC(=O)c2ccc(C)cc2)nc2c1c(=O)n(C)c(=O)n2C 77.2%, Cc1cccc2cc(C#N)c(SCC(=O)Nc3ccccc3-c3ccccc3)nc12 71.1%, COc1ccc(-c2cn3nc(SCC(=O)Nc4ccc(NC(C)=O)cc4)ccc3n2)cc1 87.6%, Cn1c(SCC(=O)Nc2ccc3c(c2)OCO3)nc2c(-c3ccccc3)csc2c1=O 96.3%, O=C(Nc1sc2c(c1C(=O)NC1CCS(=O)(=O)C1)CCCC2)c1ccccc1Cl (stereo unspecified) 95.5%, CN(C)S(=O)(=O)N1CCC(n2nc(C3CC3)ccc2=O)CC1 85.9%, Cc1cc2ccccc2n2c(=O)n(CC(C)NC(=O)CC(C)n3cncn3)nc12 (stereo unspecified) 115%, CC(=O)Nc1cccc(NC(=O)CSc2nc(=O)n(Cc3ccco3)c3c2CCC3)c1 93.3%, Cc1ccc(/C=C(\C#N)C(=O)Nc2ccccc2O)o1 87.3%, CC(=O)c1cccc(NC(=O)CSc2ccc(-c3ccccn3)nn2)c1 74.2%, COc1ccc2oc(=O)c(C(=O)Nc3cccc(-c4cn5cccc(C)c5n4)c3)cc2c1 70.4%, CNc1ncccc1CN1CCc2cc(OC)c(OC)cc2C1c1ccccc1 (stereo unspecified) 56%, Cn1c(=O)[nH]c(=O)c2[nH]c(CN3CCN(c4ccc(F)cc4)CC3)nc21 99.5%, CC(=O)N1CCCc2ccc(NC(=O)C(=O)NCCc3ccc(S(N)(=O)=O)cc3)cc21 107%, CCOc1ccc2nc(-n3nc(C)c4c3NC(=O)CC4c3cc(Br)ccc3OC)sc2c1 (stereo unspecified) 109%, COc1ccc(CN(Cc2cc3cc(C)ccc3[nH]c2=O)C(=O)N2CCCC2)cc1 88.3%, Cc1ccc2c(c1)n(Cc1ccc(Cl)cc1)c(=O)c1nc(C(=O)NCCN3CCCC3)nn12 91.2%, COc1cccc(Oc2coc3cc(OCC(N)=O)ccc3c2=O)c1 122%, Cc1cc2ccccc2c(=O)n1CC(=O)NCC1COc2ccccc2O1 (stereo unspecified) 9.05%, O=C(NNc1nc2c(F)cccc2s1)c1nc2ccccc2s1 113%, Cc1cc(NC(=O)c2cc(=O)c3ccccc3o2)no1 49.2%, Cc1ccnc(NC(=O)C2CCN(S(=O)(=O)c3c(C)nn(CC(=O)N4CCCC4)c3C)CC2)c1 10.6%, CCn1nc(C)c2[nH]c(=S)n(Cc3ccccc3Cl)c(=O)c21 75%, CCn1c(SCC(=O)c2ccc(C)cc2)nc2cccnc21 73.8%, CC(=O)N1CCc2nc(NC(=O)c3cccs3)sc2C1 117%, Cc1c(C)n2c(SCC(=O)NC3CCCCC3)nnc2[nH]c1=O 89.2%, CC(=O)N1CCc2c(sc(NC(=O)c3cc(C)ccc3C)c2C#N)C1 143%, CSc1cccc(NC(=O)CSc2nc3c(oc4ccccc43)c(=O)n2Cc2ccco2)c1 123%, Cc1ccc(Cn2c(SCc3cc(=O)n4cc(Cl)ccc4n3)nc3ccsc3c2=O)cc1 91.7%, C=CCn1c2c(c(=O)[nH]c1=O)C(c1cccc(C)c1)C1=C(COC1=O)N2 (stereo unspecified) 108%, O=C(O)c1cccc(Cn2c(Cl)c(/C=N/NC(=O)c3ccncc3)sc2=O)c1 101%, CC(C)c1nc2ccccc2c2nnc(SCC(=O)Nc3ccc(F)cc3)n12 107%, Cc1cccc(NC(=O)NC2CC(=O)N(c3ccc(F)cc3)C2)n1 (stereo unspecified) 126%, CCOCCCn1c(SCC(=O)Nc2ccc(C)cc2C)nc2c(oc3ccccc32)c1=O 114%, Cc1ccc2cc(C#N)c(N3CCCN(C(=S)NCc4ccco4)CC3)nc2c1C 84.5%, CCOC(=O)c1sc(NC(=O)c2cc3c(ccc4ccccc43)oc2=O)cc1C 88.4%, C=CCOc1ccccc1NC(=O)c1nnn(-c2ccccc2)c1C 56.8%, CCOc1ccccc1CNC(=O)c1sc(-n2cccc2)nc1C 71.1%, COc1cccc(C(=O)Nc2c(-n3cnnc3)nn(C)c2C)c1 111%, COc1cc(OC)cc(C(=O)Nc2cc3c4c(c2)CCC(=O)N4CCC3)c1 102%, Cc1ccc2[nH]c3nc(SCC(=O)Nc4ccc5c(c4)OCO5)nnc3c2c1 101%, CCOC(=O)CSc1nc(C)nc2c1c(=O)n(C)c(=O)n2C 110%, CC1CCc2nc(NC(=S)NC(=O)c3ccccc3)sc2C1 (stereo unspecified) 90.1%, O=C(NNC1=C/C(=N/S(=O)(=O)c2ccccc2)c2ccccc2C1=O)c1cccc([N+](=O)[O-])c1 60.1%, COc1ccc(N2C(=O)CC(NNC(=O)c3ccccc3)C2=O)cc1 (stereo unspecified) 113%, CCn1c(=O)c(-c2noc(CCC(=O)Nc3ccc(OC)cc3)n2)nn(-c2ccc(C)cc2)c1=O 79.6%, COc1ccc(Cc2cnc(NC(=O)/C=C/c3ccc([N+](=O)[O-])cc3)s2)cc1 87.4%, Nc1c(C(=O)c2ccccc2)sc2nc3c(c(-c4ccco4)c12)CC/C3=C\c1ccco1 77%, Cc1cc2cc(C#N)c(NCCNC(=S)Nc3ccccc3Cl)nc2cc1C 109%, CN1C(=O)/C(=N\NC(=O)CCCC(=O)N/N=C2/C(=O)N(C)c3ccccc32)c2ccccc21 90%, CSc1cccc(NC(=O)CN2N=NC3C(=O)N(c4ccc(F)c(F)c4)C(=O)C32)c1 (stereo unspecified) 113%, CN(C)CCCNS(=O)(=O)c1ccc2c(c1)NC(=O)C(C)(C)O2 108%, COc1ccc(NCc2cc3cc(OC)c(OC)cc3n(CC(=O)Nc3cccc(F)c3)c2=O)cc1 88.5%, O=C(CSc1ncnc2c1oc1ccccc12)Nc1nccs1 72.8%, O=C(CSc1nnc2[nH]c(=O)c(-c3ccc(Cl)cc3)nn12)c1ccc([N+](=O)[O-])cc1 74.2%
